According to paper doi:10.1101/2020.07.09.194399:
No constants are given. Whether binding was seen depends on the method and setting. Binding seen in cells or lysates may run through a third protein. A yes stands for co-enrichment or nearness to the bait. Other partners may have been found.

By UniProt entry, the sequences of proteins in these tests, tags left out.
UniProt Q86WV6: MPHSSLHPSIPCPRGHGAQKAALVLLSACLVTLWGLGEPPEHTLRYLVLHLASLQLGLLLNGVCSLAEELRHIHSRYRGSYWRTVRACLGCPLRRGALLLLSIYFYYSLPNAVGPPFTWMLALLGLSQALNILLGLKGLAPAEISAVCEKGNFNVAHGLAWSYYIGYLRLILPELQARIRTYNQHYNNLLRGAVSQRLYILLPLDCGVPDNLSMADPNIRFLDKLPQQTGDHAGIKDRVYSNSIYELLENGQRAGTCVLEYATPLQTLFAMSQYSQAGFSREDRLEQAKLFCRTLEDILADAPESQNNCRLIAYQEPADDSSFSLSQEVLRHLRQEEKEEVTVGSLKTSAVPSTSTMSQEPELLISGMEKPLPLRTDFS
UniProt O15260: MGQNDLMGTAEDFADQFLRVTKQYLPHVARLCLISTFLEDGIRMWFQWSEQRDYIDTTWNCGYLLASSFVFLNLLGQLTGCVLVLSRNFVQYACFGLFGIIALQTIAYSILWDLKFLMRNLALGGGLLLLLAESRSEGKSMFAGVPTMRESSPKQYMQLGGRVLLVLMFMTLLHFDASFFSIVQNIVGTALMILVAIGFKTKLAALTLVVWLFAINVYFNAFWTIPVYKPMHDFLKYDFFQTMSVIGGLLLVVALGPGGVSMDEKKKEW
UniProt P53621: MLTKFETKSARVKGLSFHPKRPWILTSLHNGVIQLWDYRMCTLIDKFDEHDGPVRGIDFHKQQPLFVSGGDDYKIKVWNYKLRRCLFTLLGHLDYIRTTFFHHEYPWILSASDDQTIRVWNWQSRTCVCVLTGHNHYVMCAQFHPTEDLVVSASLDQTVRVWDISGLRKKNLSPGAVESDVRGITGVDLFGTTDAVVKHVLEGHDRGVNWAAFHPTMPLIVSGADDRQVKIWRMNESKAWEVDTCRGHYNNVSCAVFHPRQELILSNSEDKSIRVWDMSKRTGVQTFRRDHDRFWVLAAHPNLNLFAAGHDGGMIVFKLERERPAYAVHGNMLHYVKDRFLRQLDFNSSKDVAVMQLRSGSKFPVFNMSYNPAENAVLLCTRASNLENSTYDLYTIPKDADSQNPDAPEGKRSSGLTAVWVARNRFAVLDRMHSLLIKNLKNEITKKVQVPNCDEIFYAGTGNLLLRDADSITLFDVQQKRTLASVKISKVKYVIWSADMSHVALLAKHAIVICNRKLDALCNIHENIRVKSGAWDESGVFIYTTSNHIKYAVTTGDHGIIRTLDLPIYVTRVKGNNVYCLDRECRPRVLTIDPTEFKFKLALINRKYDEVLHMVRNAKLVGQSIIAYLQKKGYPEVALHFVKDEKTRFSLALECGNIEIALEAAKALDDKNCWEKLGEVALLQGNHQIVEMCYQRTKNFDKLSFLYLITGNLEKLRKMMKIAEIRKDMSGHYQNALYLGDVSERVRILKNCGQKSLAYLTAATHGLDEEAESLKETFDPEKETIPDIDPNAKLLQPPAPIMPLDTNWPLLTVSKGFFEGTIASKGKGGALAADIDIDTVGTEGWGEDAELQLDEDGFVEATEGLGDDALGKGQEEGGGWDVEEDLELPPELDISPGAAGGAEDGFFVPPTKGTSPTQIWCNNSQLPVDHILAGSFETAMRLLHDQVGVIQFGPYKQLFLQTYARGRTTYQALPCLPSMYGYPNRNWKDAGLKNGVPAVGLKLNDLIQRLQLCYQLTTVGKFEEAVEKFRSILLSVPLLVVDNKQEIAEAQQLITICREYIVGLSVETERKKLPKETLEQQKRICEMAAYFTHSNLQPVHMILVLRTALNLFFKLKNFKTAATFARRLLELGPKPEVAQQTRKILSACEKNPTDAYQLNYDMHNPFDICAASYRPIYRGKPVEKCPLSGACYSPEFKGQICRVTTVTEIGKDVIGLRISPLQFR

Target: mCitrine (mCit)-tagged human STING (Stimulator of Interferon Genes) (human) (UniProt Q86WV6)
Test: affinity purification with mass spectrometry

Row | binding | Substance
1 | binds | Surfeit protein 4 (SURF4) (from UniProt O15260 1-269)
2 | binds | Coatomer subunit α (COPA) (from UniProt P53621 1-1224)
